The source of these data is PMC5312277.

Chains of the proteins cited; added tags and fusions are not shown. Residues count along the entry.
UniProt Q62844: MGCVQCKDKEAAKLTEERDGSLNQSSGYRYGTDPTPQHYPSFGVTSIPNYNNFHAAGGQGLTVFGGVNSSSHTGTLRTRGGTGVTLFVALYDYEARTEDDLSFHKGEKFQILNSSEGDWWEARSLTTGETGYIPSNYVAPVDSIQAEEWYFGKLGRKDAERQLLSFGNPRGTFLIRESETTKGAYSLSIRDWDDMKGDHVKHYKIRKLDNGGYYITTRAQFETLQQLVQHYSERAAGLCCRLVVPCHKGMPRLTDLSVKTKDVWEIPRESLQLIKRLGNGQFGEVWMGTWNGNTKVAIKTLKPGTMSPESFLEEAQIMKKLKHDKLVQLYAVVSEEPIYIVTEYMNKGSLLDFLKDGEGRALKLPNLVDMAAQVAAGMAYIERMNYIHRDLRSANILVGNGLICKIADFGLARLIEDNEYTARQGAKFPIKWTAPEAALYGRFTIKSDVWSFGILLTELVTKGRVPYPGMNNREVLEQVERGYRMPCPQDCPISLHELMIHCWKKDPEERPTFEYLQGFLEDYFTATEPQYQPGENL
UniProt Q00960, residues 27-1482: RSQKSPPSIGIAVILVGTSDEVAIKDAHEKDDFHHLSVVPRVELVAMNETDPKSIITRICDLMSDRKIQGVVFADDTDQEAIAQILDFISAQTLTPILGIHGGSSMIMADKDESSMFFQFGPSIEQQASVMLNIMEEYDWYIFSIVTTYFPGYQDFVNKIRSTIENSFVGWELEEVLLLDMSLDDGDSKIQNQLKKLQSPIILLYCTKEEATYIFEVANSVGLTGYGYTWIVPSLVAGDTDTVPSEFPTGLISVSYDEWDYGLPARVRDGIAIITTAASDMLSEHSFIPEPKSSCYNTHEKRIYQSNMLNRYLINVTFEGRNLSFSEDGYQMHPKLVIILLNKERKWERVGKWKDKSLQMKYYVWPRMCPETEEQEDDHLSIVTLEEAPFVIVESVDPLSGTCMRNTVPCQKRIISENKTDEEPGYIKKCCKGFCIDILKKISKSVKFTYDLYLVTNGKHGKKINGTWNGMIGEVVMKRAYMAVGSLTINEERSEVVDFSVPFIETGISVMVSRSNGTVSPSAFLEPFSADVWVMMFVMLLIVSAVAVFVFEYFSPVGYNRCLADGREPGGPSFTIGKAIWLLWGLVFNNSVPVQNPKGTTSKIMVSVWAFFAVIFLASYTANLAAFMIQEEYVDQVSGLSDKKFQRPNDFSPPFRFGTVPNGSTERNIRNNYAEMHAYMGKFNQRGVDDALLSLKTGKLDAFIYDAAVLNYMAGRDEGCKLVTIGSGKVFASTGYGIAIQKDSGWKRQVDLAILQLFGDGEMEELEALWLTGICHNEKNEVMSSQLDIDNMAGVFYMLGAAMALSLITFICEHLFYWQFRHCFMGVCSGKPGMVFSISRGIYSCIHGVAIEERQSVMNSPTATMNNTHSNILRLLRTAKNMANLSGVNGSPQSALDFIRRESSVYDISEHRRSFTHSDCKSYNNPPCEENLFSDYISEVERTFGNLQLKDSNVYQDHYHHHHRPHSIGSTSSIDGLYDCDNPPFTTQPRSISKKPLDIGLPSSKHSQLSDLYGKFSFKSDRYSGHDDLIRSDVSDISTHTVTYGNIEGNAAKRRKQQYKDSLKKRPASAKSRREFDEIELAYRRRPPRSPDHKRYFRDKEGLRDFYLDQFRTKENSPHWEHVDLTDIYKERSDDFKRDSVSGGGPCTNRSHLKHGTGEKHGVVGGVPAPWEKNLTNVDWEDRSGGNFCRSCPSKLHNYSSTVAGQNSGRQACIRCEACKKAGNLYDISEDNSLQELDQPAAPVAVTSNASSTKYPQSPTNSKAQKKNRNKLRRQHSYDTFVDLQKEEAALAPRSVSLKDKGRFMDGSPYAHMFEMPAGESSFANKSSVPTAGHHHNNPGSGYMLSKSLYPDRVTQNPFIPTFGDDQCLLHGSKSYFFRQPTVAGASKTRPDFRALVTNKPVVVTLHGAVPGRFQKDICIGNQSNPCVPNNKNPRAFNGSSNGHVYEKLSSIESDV

The target in this experiment is Fyn tyrosine kinase (rat (endogenous in striatum)) (UniProt Q62844). Briefly: co-IP; 400 ug striatal protein (lesioned and unlesioned side) of 6-OHDA-lesioned rats treated with L-dopa alone (Dyskinesia), L-dopa plus rTMS, or L-dopa plus sham stimulation; IP with mouse monoclonal anti-Fyn antibody and protein A sepharose CL-4B at 4 °C, blotted with anti-NR2B antibody.

No constants are given. Whether binding was seen depends on the method and setting. In cells and extracts the contact can be indirect. Some results given as binding are weak or reduced against the parent protein; the word gives no strength.

NR2B (from UniProt Q00960 27-1482): the binding result is listed as “binds”.
